Counter-ions that a name gives are not always drawn. The list shows a part of the results. Single values of this set are uncertain.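 Yeast growth was measured as optical density at 600 nm. Two-hybrid strains grew without histidine, so growth depended on Pex3–Pex19 binding. A compound was trypanosome-selective if it reduced growth of the trypanosome-pair strain by over 65% and of the human-pair strain by under 65%.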
Experiments:
[1] = tested on: Saccharomyces cerevisiae HF7c pdr5Δ; assay: general growth inhibition of yeast HF7c pdr5Δ in -Leu -Trp medium, relative to DMSO; higher = stronger general growth inhibition; conditions: 100 µM; 24 h
[2] = tested on: human PEX3-PEX19 interaction (yeast two-hybrid); assay: growth inhibition of yeast two-hybrid strain reporting HsPex3-HsPex19 interaction, relative to DMSO; higher = stronger inhibition of human Pex3-Pex19 interaction / growth; conditions: 100 µM; 24 h; 3-aminotriazole 10 mM
[3] = tested on: T. brucei Pex3-Pex19 interaction (yeast two-hybrid); assay: growth inhibition of yeast two-hybrid strain reporting TbPex3-TbPex19 interaction, relative to DMSO; higher = stronger inhibition of T. brucei Pex3-Pex19 interaction / growth; conditions: 100 µM; 24 h

SMILES | general growth inhibition [1] [%] | growth inhibition [2] [%] | growth inhibition [3] [%]
COc1cc2c(CCNC(C)=O)c[nH]c2cc1O [6-Hydroxymelatonin] | 32.5 | 35.3 | 58.2
COc1cc(/C=C/C(=O)N2CCC=CC2=O)cc(OC)c1OC [Piperlongumine] | 53.5 | 41.6 | 48.3
CC1CNCCN1S(=O)(=O)c1cccc2cnccc12 (stereo not drawn) | 49.6 | 48.1 | 70.2
CC(C)[C@H](NC(=O)OCc1ccccc1)C(=O)N[C@H](C=O)Cc1ccccc1 | 26.8 | 4.85 | 29.6
Cc1nc(N=Nc2ccc(C(=O)O)cc2)c(COP(=O)(O)O)c(C=O)c1O | 48.3 | 50.1 | 66
Cc1cc(N)c2ccccc2[n+]1CCCCCCCCCC[n+]1c(C)cc(N)c2ccccc21 [Dequalinium chloride hydrate] | 87.2 | 84.8 | 79.1
NCC(O)C1CCCCCCC1 (stereo not drawn) [2-Cyclooctyl-2-hydroxyethylamine hydrochloride] | 27.9 | 36.8 | 63.4
CC(C)Cn1c(=O)n(C)c(=O)c2[nH]cnc21 [3-Isobutyl-1-methylxanthine] | 17.7 | 20.3 | 36.3
CNCCC=C1c2ccccc2CCc2ccccc21 [Nortriptyline hydrochloride] | 38 | 44.2 | 59.2
Fc1ccc(CN(C2=NCCN2)c2c(Cl)cccc2Cl)cc1 [IMID-4F hydrochloride] | 21.7 | 35.7 | 52.6
N=C(N)SCCN [2-(2-Aminoethyl)isothiourea dihydrobromide] | 34.9 | 29.4 | 49
O=C(/C=C/c1ccc(O)cc1)CC(=O)/C=C/c1ccc(O)cc1 [Bisdemethoxycurcumin] | 58.8 | 51.8 | -2.67
NCCCCC(=O)O [5-Aminovaleric acid hydrochloride] | 35.9 | 34.9 | 56.2
O=c1[nH]c2ccccc2c2ccccc12 [6(5H)-Phenanthridinone] | 67.5 | 57.5 | 62.3
CC1=C(/C=C/C(C)=C/C=C/C(C)=C/C(=O)Nc2ccc(O)cc2)C(C)(C)CCC1 [Retinoic acid p-hydroxyanilide] | 1.06 | -2.62 | 25.4
CC(CN(C)C)CN1c2ccccc2CCc2ccccc21 (stereo not drawn) [Trimipramine maleate] | 56.3 | 45.8 | 62.6
CC(NCCc1ccc(O)cc1)C(O)c1ccc(O)cc1 (stereo not drawn) [Ritodrine hydrochloride] | 27.7 | 12.9 | 42.7
COc1cc(CNC(=O)CCCCCCC(C)C)ccc1O [Dihydrocapsaicin] | 38.7 | 22.3 | 71.5
C[C@H]1C[C@H]2[C@@H]3CCC4=CC(=O)C=C[C@]4(C)[C@@]3(F)[C@@H](O)C[C@]2(C)[C@@]1(O)C(=O)CO [Betamethasone] | 38.2 | 39 | 51

Shown as a markdown table: 2 of the compounds above

| SMILES | general growth inhibition [1] [%] | growth inhibition [2] [%] | growth inhibition [3] [%] |
| --- | --- | --- | --- |
| CC1=C(/C=C/C(C)=C/C=C/C(C)=C/C(=O)Nc2ccc(O)cc2)C(C)(C)CCC1 [Retinoic acid p-hydroxyanilide] | 1.06 | -2.62 | 25.4 |
| CC(CN(C)C)CN1c2ccccc2CCc2ccccc21 (stereo not drawn) [Trimipramine maleate] | 56.3 | 45.8 | 62.6 |

Carrying on.

SMILES | general growth inhibition [1] [%] | growth inhibition [2] [%] | growth inhibition [3] [%]
CCOC(=O)[C@H](CCc1ccccc1)N[C@@H](C)C(=O)N1[C@H](C(=O)O)C[C@H]2CCCC[C@@H]21 [Trandolapril] | 41.9 | 46.4 | 68.8
Cc1oncc1C(=O)Nc1ccc(C(F)(F)F)cc1 [Leflunomide] | 23.4 | 6.43 | 15.7
COC(=O)Nc1nc2cc(C(=O)c3cccs3)ccc2[nH]1 [Nocodazole] | 47.9 | 39.1 | 50.9
Nc1nc(OCC2CCCCC2)c2[nH]cnc2n1 | 42.3 | 50 | 67.3
CC(Cc1ccccc1)Nc1ncnc2c1ncn2C1OC(CO)C(O)C1O (stereo not drawn) [R(-)-N6-(2-Phenylisopropyl)adenosine] | 13.1 | 10.1 | 34.2
C[C@H](N[C@@H](CCc1ccccc1)C(=O)O)C(=O)N1CCC[C@H]1C(=O)O [Enalaprilat dihydrate] | 44.6 | 51.1 | 61.1
CCCCCN(CCCCC)C(=O)C(CCC(=O)O)NC(=O)c1ccc(Cl)c(Cl)c1 (stereo not drawn) [Lorglumide sodium] | 33.2 | 18.2 | 26
CNC[C@H](O)c1cccc(O)c1 [Phenylephrine hydrochloride] | 53.7 | 53.1 | 69.2
NC(=O)c1ncn([C@@H]2O[C@H](CO)[C@@H](O)[C@H]2O)n1 [Ribavirin] | 51 | 47.3 | 65.6
COc1ccccc1CNCCCCCCNCCCCCCCCNCCCCCCNCc1ccccc1OC [Methoctramine tetrahydrochloride] | 35.5 | 30.7 | 55.5
CCCn1c(=O)[nH]c(=O)c2[nH]cnc21 [3-n-Propylxanthine] | 55.3 | 43.8 | 65.7
COc1cc2nc(N3CCCN(C)CC3)nc(NC3CCN(Cc4ccccc4)CC3)c2cc1OC | 41.9 | 35.1 | 57.2
OC1(c2ccc(Cl)cc2)CCN(Cc2c[nH]c3ccccc23)CC1 | 35.6 | 34.7 | 66.1
N=C(N)c1ccccc1 [Benzamidine hydrochloride] | 27.3 | 45.1 | 67.2
COC(=O)[C@H]1[C@H]2C[C@H]3c4[nH]c5ccccc5c4CCN3C[C@H]2CC[C@@H]1O [Rauwolscine hydrochloride] | 51.8 | 44.2 | 70.2
CC(CN1c2ccccc2Sc2ccccc21)N(C)C (stereo not drawn) [Promethazine hydrochloride] | 58 | 45 | 70.9
COc1ccc(Br)cc1S(=O)(=O)NC(=O)/C=C/c1ccccc1Cc1ccc2ccccc2c1 | 36.5 | 21.2 | 20.9
O=C1NCCc2[nH]c(-c3ccncc3)cc21 | 46.9 | 53.4 | 59.1
CCNc1nc2c(ncn2[C@H]2C[C@H](O)[C@@H](CO)O2)c(=O)[nH]1 [N2-Ethyl-2'-deoxyguanosine] | 41.2 | 50.2 | 67.6

SMILES | general growth inhibition [1] [%] | growth inhibition [2] [%] | growth inhibition [3] [%]
CC(=O)[C@H]1CC[C@H]2[C@@H]3CCC4=CC(=O)CC[C@]4(C)[C@H]3CC[C@]12C [Progesterone] | 83.6 | 76.3 | 79.5
CC1=C(/C=C/C(C)=C/C=C/C(C)=C\C(=O)O)C(C)(C)CCC1 [13-cis-retinoic acid] | 43.7 | 31.5 | 45.8
CCCCCCN(CCCCCC)C(=O)Cc1c(-c2ccc(F)cc2)[nH]c2ccccc12 [N,N-Dihexyl-2-(4-fluorophenyl)indole-3-acetamide] | 31.2 | 26.5 | 49
CC(C)NCC(O)COc1cccc2[nH]ccc12 (stereo not drawn) [Pindolol] | 10.9 | 5.08 | 36
COc1cc(CC(=O)O)ccc1O [4-Hydroxy-3-methoxyphenylacetic acid] | 15 | 4.69 | 26.5
CC(C(O)c1ccc(O)cc1)N1CCC(Cc2ccccc2)CC1 (stereo not drawn) [Ifenprodil tartrate] | 33.3 | 38.2 | 47.6
NS(=O)(=O)c1cc2c(cc1Cl)NC(C1CC3C=CC1C3)NS2(=O)=O (stereo not drawn) [Cyclothiazide] | 6.54 | 3.42 | 31.2
O=C(O)c1cc2cc(F)ccc2[nH]1 [5-Fluoroindole-2-carboxylic acid] | 24.1 | 21.3 | 46.1
N[C@@H](Cc1c[nH]c2ccc(O)cc12)C(=O)O [5-Hydroxy-L-tryptophan] | 38.7 | 33.8 | 56.9
Cn1c(=O)c2[nH]c(-c3ccc(S(=O)(=O)O)cc3)nc2n(C)c1=O [8-(p-Sulfophenyl)theophylline] | 87.6 | 79 | 84.2
CC(N)(Cc1ccc(O)cc1)C(=O)O (racemic) [DL-alpha-Methyl-p-tyrosine] | 11.2 | 13.3 | 28
N=C(N)c1ccc(N)cc1 [4-Aminobenzamidine dihydrochloride] | 45.8 | 42.8 | 55.5
CC(C)(C)NCC(O)COc1cccc2[nH]c(=O)[nH]c12 (racemic) | 35.2 | 43.8 | 65.1
COc1ccc(S(=O)(=O)Nc2nc(-c3cccc([N+](=O)[O-])c3)cs2)cc1OC | 39.1 | 27.1 | 57.5
Nc1c(S(=O)(=O)O)cc(Nc2ccc(Nc3nc(Cl)nc(Nc4cccc(S(=O)(=O)O)c4)n3)c(S(=O)(=O)O)c2)c2c1C(=O)c1ccccc1C2=O [Reactive Blue 2] | 19.4 | -16.4 | 2.67
CSC(=N)NCCC[C@H](N)C(=O)O [S-Methyl-L-thiocitrulline acetate] | 50.5 | 46.8 | 71.9
CO/N=C(\C(=O)N[C@@H]1C(=O)N2C(C(=O)O)=C(CSc3nc(=O)c(O)nn3C)CS[C@H]12)c1csc(N)n1 [Ceftriaxone sodium] | 49.8 | 40 | 62.8
NCCCCNCCCN [Spermidine trihydrochloride] | 20.4 | 19.5 | 45.2

Grouped by structure, the compounds so far containing an aryl methoxy group
SMILES | general growth inhibition [1] [%] | growth inhibition [2] [%] | growth inhibition [3] [%]
COc1cc2c(CCNC(C)=O)c[nH]c2cc1O [6-Hydroxymelatonin] | 32.5 | 35.3 | 58.2
COc1cc(/C=C/C(=O)N2CCC=CC2=O)cc(OC)c1OC [Piperlongumine] | 53.5 | 41.6 | 48.3
COc1cc(CNC(=O)CCCCCCC(C)C)ccc1O [Dihydrocapsaicin] | 38.7 | 22.3 | 71.5
COc1ccccc1CNCCCCCCNCCCCCCCCNCCCCCCNCc1ccccc1OC [Methoctramine tetrahydrochloride] | 35.5 | 30.7 | 55.5
COc1cc2nc(N3CCCN(C)CC3)nc(NC3CCN(Cc4ccccc4)CC3)c2cc1OC | 41.9 | 35.1 | 57.2
COc1ccc(Br)cc1S(=O)(=O)NC(=O)/C=C/c1ccccc1Cc1ccc2ccccc2c1 | 36.5 | 21.2 | 20.9
COc1cc(CC(=O)O)ccc1O [4-Hydroxy-3-methoxyphenylacetic acid] | 15 | 4.69 | 26.5
COc1ccc(S(=O)(=O)Nc2nc(-c3cccc([N+](=O)[O-])c3)cs2)cc1OC | 39.1 | 27.1 | 57.5

Source: the supplement of paper PMC8326762, “A Small Molecule Inhibitor of Pex3–Pex19 Interaction Disrupts Glycosome Biogenesis and Causes Lethality in Trypanosoma brucei” (Frontiers in Cell and Developmental Biology, 2021)
